Measured values as given in the supplement of paper PMC10331698.
± gives the standard deviation of the averaged measurements. Most entries show no effect beyond the scatter of the controls.

How the values were obtained:
Test in all cases: level (log10 ratio to DMSO vehicle control); higher = higher biomarker level / cell amount than vehicle control
[1] = compound: C=C(C)C(=O)OCCC(F)(F)C(F)(F)C(F)(F)C(F)(F)C(F)(F)C(F)(F)F [6:2 Fluorotelomer methacrylate] (in DMSO); conditions: 2200 nM
Description: (§1)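 BioMAP Diversity Plus panel of 12 human primary cell co-culture systems (3C, 4H, LPS, SAg, BT, BF4T, BE3C, CASM3C, HDF3CGF, KF3CT, MyoF, Mphg). Compounds were added 1 h before stimulation and left for 24 h (MyoF 48 h; BT 72 h for soluble read-outs or 6 d for IgG). Biomarkers were read by ELISA, cytotoxicity by SRB, PBMC viability and proliferation by Alamar Blue. Each well value was divided by the mean of 8 DMSO control wells on the same plate and log10 transformed; duplicate blinded samples were tested at 4 concentrations.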

[2] = compound: CNS(=O)(=O)C(F)(F)C(F)(F)C(F)(F)C(F)(F)C(F)(F)C(F)(F)C(F)(F)C(F)(F)F [N-Methylperfluorooctanesulfonamide] (in DMSO); conditions: 2200 nM
Description: as §1

[3] = compound: FC(F)(F)C(F)(F)C(F)(F)C(F)(F)CCI [1H,1H,2H,2H-Perfluorohexyl iodide] (in DMSO); conditions: 2200 nM
Description: as §1

[4] = compound: FC(F)(F)C(F)(F)CNCC(F)(F)C(F)(F)F [Bis(1H,1H-perfluoropropyl)amine] (in DMSO); conditions: 2200 nM
Description: as §1

[5] = compound: FC(F)(F)COC(OCC(F)(F)F)OCC(F)(F)F [tris(Trifluoroethoxy)methane] (in DMSO); conditions: 2200 nM
Description: as §1

Hexafluoroglutaric acid = compound: O=C(O)C(F)(F)C(F)(F)C(F)(F)C(=O)O [Hexafluoroglutaric acid] (in DMSO)
Description: as §1

Perfluorohexanoic acid = compound: O=C(O)C(F)(F)C(F)(F)C(F)(F)C(F)(F)C(F)(F)F [Perfluorohexanoic acid] (in DMSO)
Description: as §1

[6] = compound: O=C(O)C(F)(F)C(F)(F)C(F)(F)OC(F)(C(F)(F)F)C(F)(F)F [Perfluoro-4-isopropoxybutanoic acid] (in DMSO); conditions: 2200 nM
Description: as §1

[7] = compound: O=C(O)C(F)(OC(F)(F)C(F)(F)C(F)(F)F)C(F)(F)F [Ammonium perfluoro-2-methyl-3-oxahexanoate] (in Water)
Description: as §1

[8] = compound: O=C(O)C(F)(OC(F)(F)C(F)(OC(F)(F)C(F)(OC(F)(F)C(F)(F)C(F)(F)F)C(F)(F)F)C(F)(F)F)C(F)(F)F [Perfluoro-(2,5,8-trimethyl-3,6,9-trioxadodecanoic)acid] (in DMSO); conditions: 370 nM
Description: as §1

[9] = compound: O=C(O)CCC(F)(F)C(F)(F)C(F)(F)F [3:3 Fluorotelomer carboxylic acid] (in DMSO); conditions: 2200 nM
Description: as §1

[10] = compound: O=S(=O)(O)C(F)(F)C(F)(F)C(F)(F)C(F)(F)F [Perfluorobutanesulfonic acid] (in DMSO)
Description: as §1

[11] = compound: OCC(F)(F)C(F)(F)C(F)(F)C(F)(F)C(F)(F)C(F)(F)CO [1H,1H,8H,8H-Perfluorooctane-1,8-diol] (in DMSO); conditions: 2200 nM
Description: as §1

[12] = compound: OCC(F)(F)C(F)(F)C(F)(F)C(F)(F)C(F)(F)C(F)(F)F [6:1 Fluorotelomer alcohol] (in DMSO); conditions: 2200 nM
Description: as §1

[13] = compound: OCC(F)(F)C(F)(F)C(F)(F)C(F)F [1H,1H,5H-Perfluoropentanol] (in DMSO); conditions: 2200 nM
Description: as §1

[14] = compound: OCC(F)(F)OC(F)(F)C(F)(F)OC(F)(F)CO [1H,1H,8H,8H-Perfluoro-3,6-dioxaoctane-1,8-diol] (in DMSO); conditions: 2200 nM
Description: as §1

[15] = compound: OCCCC(F)(F)C(F)(F)C(F)(F)C(F)(F)C(F)(F)C(F)(F)C(F)(F)C(F)(F)F [3-(Perfluorooctyl)propanol] (in DMSO); conditions: 2200 nM
Description: as §1

Test System	level (log10) [1]	level (log10) [2]	level (log10) [3]	level (log10) [4]	level (log10) [5]	level (log10) (Hexafluoroglutaric acid; 2200 nM)	level (log10) (Hexafluoroglutaric acid; 6700 nM)	level (log10) (Hexafluoroglutaric acid; 20000 nM)	level (log10) (Hexafluoroglutaric acid; 60000 nM)	level (log10) (Perfluorohexanoic acid; 2200 nM)	level (log10) (Perfluorohexanoic acid; 6700 nM)	level (log10) (Perfluorohexanoic acid; 20000 nM)	level (log10) (Perfluorohexanoic acid; 60000 nM)	level (log10) [6]	level (log10) ([7]; 2200 nM)	level (log10) ([7]; 6700 nM)	level (log10) ([7]; 20000 nM)	level (log10) ([7]; 60000 nM)	level (log10) [8]	level (log10) [9]	level (log10) ([10]; 2200 nM)	level (log10) ([10]; 6700 nM)	level (log10) ([10]; 20000 nM)	level (log10) ([10]; 60000 nM)	level (log10) [11]	level (log10) [12]	level (log10) [13]	level (log10) [14]	level (log10) [15]
lMphg:CCL2/MCP-1	-0.009 ± 0.0071	-0.002 ± 0.045	-0.0195 ± 0.033	-0.003 ± 0.0085	0.0235 ± 0.037	-0.026 ± 0.024	-0.046 ± 0.052	-0.0305 ± 0.037	-0.0235 ± 0.011	-0.001 ± 0.0042	-0.0065 ± 0.028	-0.021 ± 0.0099	-0.014 ± 0.041	-0.001 ± 0.031	0.034 ± 0.042	0.0165 ± 0.005	0.0125 ± 0.012	0.038 ± 0.027	-0.0125 ± 0.0092	0.0175 ± 0.043	0.006 ± 0.0028	0.0105 ± 0.0021	0.0105 ± 0.0078	0.0145 ± 0.025	0.013 ± 0.044	-0.0095 ± 0.012	-0.023 ± 0.051	0.01 ± 0.05	0.017 ± 0.04
CASM3C:CD106/VCAM-1	-0.0115 ± 0.00071	-0.0225 ± 0.1	-0.013 ± 0.076	-0.041 ± 0.028	-0.019 ± 0.017	-0.0025 ± 0.06	-0.0105 ± 0.03	-0.0125 ± 0.036	0.012 ± 0.011	0.002 ± 0.02	-0.013 ± 0.011	-0.002 ± 0.014	-0.029 ± 0.018	0.041 ± 0.054	-0.0525 ± 0.0035	-0.0955 ± 0.061	-0.0645 ± 0.005	-0.083 ± 0.011	-0.0065 ± 0.0092	-0.006 ± 0.0057	-0.003 ± 0.016	-0.0465 ± 0.021	-0.0255 ± 0.025	-0.033 ± 0.0057	0.0105 ± 0.0021	-0.0015 ± 0.025	-0.012 ± 0.0028	-0.007 ± 0.017	-0.04 ± 0.033
CASM3C:CXCL9/MIG	0.035 ± 0.033	0.0155 ± 0.054	0.0435 ± 0.03	0 ± 0.058	-0.002 ± 0.033	0.0085 ± 0.052	-0.0195 ± 0.019	-0.02 ± 0.0085	0.022 ± 0.033	0.0055 ± 0.021	0.008 ± 0.0057	0.001 ± 0.0042	0.012 ± 0.021	0.0245 ± 0.066	0.078 ± 0.024	0.039 ± 0.038	0.05 ± 0.0071	0.0595 ± 0.015	0.0105 ± 0.023	0.005 ± 0.0085	0.0245 ± 0.056	0.01 ± 0.028	0.0135 ± 0.035	0.0465 ± 0.0092	0.0165 ± 0.0064	0.0125 ± 0.023	0.0395 ± 0.019	0.0145 ± 0.005	-0.004 ± 0.0028
CASM3C:CCL2/MCP-1	-0.0155 ± 0.022	0.0255 ± 0.033	0.0355 ± 0.04	-0.0105 ± 0.012	0.0095 ± 0.035	0.0145 ± 0.063	-0.0115 ± 0.033	-0.024 ± 0.025	0.0205 ± 0.039	0.0075 ± 0.022	-0.014 ± 0.0042	0.0025 ± 0.021	0.008 ± 0.027	0.0255 ± 0.032	-0.033 ± 0.034	-0.0235 ± 0.021	-0.034 ± 0.035	-0.013 ± 0.013	0.008 ± 0.017	-0.0055 ± 0.012	0.001 ± 0.0099	-0.0085 ± 0.0092	-0.0125 ± 0.035	-0.0045 ± 0.021	0.0085 ± 0.044	0.002 ± 0.042	0.019 ± 0.0042	-0.0135 ± 0.037	0.009 ± 0.038
MyoF:CXCL8/IL-8	0.026 ± 0.068	0.002 ± 0.057	0.0625 ± 0.054	0.003 ± 0.0057	-0.014 ± 0.018	0.018 ± 0.0042	-0.0085 ± 0.0021	-0.0225 ± 0.013	-0.0015 ± 0.021	0.0005 ± 0.0078	-0.0015 ± 0.016	-0.0075 ± 0.026	-0.015 ± 0.05	0.028 ± 0.0028	-0.0405 ± 0.056	-0.0355 ± 0.032	-0.0385 ± 0.011	-0.045 ± 0.011	0.0265 ± 0.016	-0.0005 ± 0.044	0.039 ± 0.054	0.007 ± 0.042	0.0425 ± 0.021	0.0665 ± 0.0064	-0.0075 ± 0.015	0.007 ± 0.018	0.015 ± 0.11	0.0485 ± 0.025	-0.0075 ± 0.0064
LPS:CD62E/E-Selectin	0.008 ± 0.016	-0.0035 ± 0.042	0.0105 ± 0.028	0.011 ± 0.0028	-0.0065 ± 0.005	0.0065 ± 0.043	-0.003 ± 0.035	0.0045 ± 0.03	0.004 ± 0.033	-0.0075 ± 0.00071	-0.01 ± 0.0042	-0.0065 ± 0.012	-0.003 ± 0.0028	0.004 ± 0.045	0.017 ± 0.031	-0.0115 ± 0.0078	-0.005 ± 0.016	-0.004 ± 0.0085	-0.006 ± 0.0057	-0.007 ± 0.023	0.0245 ± 0.018	0.007 ± 0.0071	0.0255 ± 0.0092	0.028 ± 0.023	-0.034 ± 0.024	0.008 ± 0.0057	-0.0025 ± 0.0064	-0.013 ± 0.018	-0.0285 ± 0.012
BE3C:PAI-I	-0.04 ± 0.048	-0.088 ± 0.02	-0.043 ± 0.034	-0.012 ± 0.044	0.0035 ± 0.03	-0.01 ± 0.0071	-0.0205 ± 0.016	-0.014 ± 0.027	0.002 ± 0.03	0.008 ± 0.0028	-0.019 ± 0.018	-0.029 ± 0.011	0.0065 ± 0.022	0.002 ± 0.0085	-0.128 ± 0.082	-0.0995 ± 0.057	-0.092 ± 0.044	-0.124 ± 0.012	-0.0405 ± 0.028	0.0035 ± 0.037	0.0055 ± 0.0092	-0.0015 ± 0.0035	-0.006 ± 0.013	0.008 ± 0.013	0.023 ± 0.021	-0.0635 ± 0.053	-0.001 ± 0.0085	-0.0035 ± 0.011	-0.016
HDF3CGF:MMP-1	0.0035 ± 0.0035	0.0035 ± 0.00071	0.003 ± 0.0042	-0.006 ± 0.023	-0.0145 ± 0.0035	-0.005 ± 0.014	0.0195 ± 0.0092	0.002 ± 0.02	-0.0045 ± 0.021	0.0185 ± 0.00071	0.0155 ± 0.036	0.0045 ± 0.016	-0.0145 ± 0.043	0.001 ± 0.0099	-0.005 ± 0.0085	0.0035 ± 0.016	0.011	0.008 ± 0.0085	0.018 ± 0.028	0.015 ± 0.023	-0.0155 ± 0.0035	0.0085 ± 0.011	0.002 ± 0.013	-0.0165 ± 0.036	-0.008 ± 0.016	-0.013 ± 0.028	-0.015 ± 0.0071	-0.007 ± 0.0057	0.017 ± 0.014
